{
  "sequences": {"note": "Sequences of proteins named here, by UniProt entry; tags and fusion partners are left off. A change or cut given only in a name is not applied to a line headed by its entry.", "UniProt P18054": "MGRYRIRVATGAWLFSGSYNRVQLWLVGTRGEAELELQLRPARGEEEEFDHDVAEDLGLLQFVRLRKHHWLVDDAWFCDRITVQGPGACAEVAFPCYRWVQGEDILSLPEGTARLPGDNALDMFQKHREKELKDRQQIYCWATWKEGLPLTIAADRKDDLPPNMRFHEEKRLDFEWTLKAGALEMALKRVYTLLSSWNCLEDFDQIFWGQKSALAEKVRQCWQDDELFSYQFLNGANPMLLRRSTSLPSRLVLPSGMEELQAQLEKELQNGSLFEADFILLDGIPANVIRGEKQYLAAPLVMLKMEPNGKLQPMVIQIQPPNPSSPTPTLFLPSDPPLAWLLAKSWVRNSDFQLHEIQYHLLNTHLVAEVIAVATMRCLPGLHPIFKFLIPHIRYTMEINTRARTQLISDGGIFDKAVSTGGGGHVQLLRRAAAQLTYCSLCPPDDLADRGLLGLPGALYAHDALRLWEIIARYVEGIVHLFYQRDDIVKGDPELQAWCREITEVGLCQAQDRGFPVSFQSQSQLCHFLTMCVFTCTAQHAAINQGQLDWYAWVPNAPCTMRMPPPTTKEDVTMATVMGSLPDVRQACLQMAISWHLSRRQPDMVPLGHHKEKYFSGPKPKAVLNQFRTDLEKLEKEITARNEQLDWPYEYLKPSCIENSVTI"},
  "source": "PubChem BioAssay AID1671190",
  "about": "(National Center for Advancing Translational Sciences (NCATS), 2021)",
  "note": "About 6,100 (1.1%) of roughly 580,000 compounds were called active. The inconclusive results got no clear call from the source; some entries with a clear call stand among them for comparison. Calls follow the shape of the dose curve; as a rule, active = well fitted inhibition curve with a large enough effect; inconclusive = small, poorly fitted or top-dose-only effect, or another doubt; inactive = no such curve, though single readings can be large or run the other way. Where the call is inconclusive, the potency comes from a doubtful curve fit. % is scaled to controls: 0 for no effect and ±100 for the full control effect; potency is read from the fitted curve at half-maximal effect.",
  "data": [
    {"molecular_target": "Polyunsaturated fatty acid lipoxygenase ALOX12 (Homo sapiens) (UniProt P18054)", "experiment": "Primary qHTS assay for inhibitors of human arachidonate 12S-lipoxygenase (ALOX12): Round 2", "settings": "purified 12hLO, xylenol orange hydroperoxide absorbance; activity change, negative = inhibition: at 108 µM (top of the series) unless noted", "in_short": "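Hydroperoxide product was detected by ferrous iron/xylenol orange as the 573 to 405 nm absorbance ratio. Arachidonic acid at 40 uM (final) was turned over for 30 min at room temperature by 150 nM human 12hLO, pH 7.0 Hepes buffer, after 15 min compound preincubation.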", "values": [
      {"smiles": "COc1cccc(C(=O)CSc2nnnn2C)c1", "Potency": "inconclusive: 50.1 µM [inhibitor, partial curve, poor fit]"},
      {"smiles": "Cc1ccc2c(Cl)c(C(=O)Nc3ccc(S(=O)(=O)Nc4cc(C)nc(C)n4)cc3)sc2c1", "Potency": "inconclusive: 89.1 µM [inhibitor, single point]"},
      {"smiles": "O=C(c1ccc(OC2CCN(Cc3ccc(C(F)(F)F)cc3)CC2)cc1)N1CCCCC1", "Potency": "inconclusive: 79.4 µM [inhibitor, partial curve, poor fit]"},
      {"smiles": "CN1CCN(c2ccc(-c3noc([C@@H]4CCCN4C4CCCCC4)n3)cn2)CC1", "activity change, negative = inhibition": "inactive: 19.2% [at 176 µM]"},
      {"smiles": "COc1cc(CNCCO)cc(Br)c1OCc1ccccc1Cl", "Potency": "inconclusive: 50.1 µM [inhibitor, partial curve, poor fit]"},
      {"smiles": "CCCN(CC(=O)NC(=O)Nc1ccccc1)Cc1ccc(C#N)cc1", "Potency": "inconclusive: 0.501 µM [inhibitor, full curve, poor fit]"},
      {"smiles": "Cc1cc(/C=N/Nc2ccc([N+](=O)[O-])cn2)c(C)n1-c1ccccc1", "activity change, negative = inhibition": "inactive: 0%"},
      {"smiles": "O=C(Nc1ccc(Cl)cc1F)C12CC3CC(CC(C3)C1)C2", "activity change, negative = inhibition": "inactive: -36.3%"},
      {"smiles": "COC(=O)[C@H]1[C@H](CO)[C@H]2Cn3c(cccc3=O)[C@H]2N1Cc1ccccc1F", "Potency": "inconclusive: 6.31 µM [inhibitor, full curve, poor fit]"},
      {"smiles": "O=[N+]([O-])c1ccc(/C=N/N=C(c2ccccc2)c2ccccc2)cc1", "activity change, negative = inhibition": "inactive: -0.853%"},
      {"smiles": "O=C(CSc1oc(-c2ccco2)nc1S(=O)(=O)c1ccc(Cl)cc1)c1ccc(Cl)cc1", "Potency": "inconclusive: 31.6 µM [inhibitor, partial curve, poor fit]"},
      {"smiles": "CCNC(=O)c1ccccc1-c1nc(-c2ccccc2OC)no1", "activity change, negative = inhibition": "inactive: 0%"},
      {"smiles": "CCOc1ccccc1NC(=O)CC1Nc2ccccc2NC1=O", "note": "(centres undefined)", "Potency": "inconclusive: 31.6 µM [inhibitor, partial curve, poor fit]"},
      {"smiles": "CNC(=O)c1ccc(C)c(-n2c(C)cc(OCc3ccc(F)cc3F)c(Br)c2=O)c1", "Potency": "inconclusive: 17.2 µM [inhibitor, partial curve, poor fit]"},
      {"smiles": "Cc1cc(NC(=O)COC(=O)c2cccc(OCc3ccccc3)c2)no1", "Potency": "inconclusive: 89.1 µM [inhibitor, single point]"},
      {"smiles": "Cc1ccc(C(=O)NCC(O)c2ccc(F)cc2F)cn1", "note": "(centres undefined)", "Potency": "inconclusive: 22.4 µM [inhibitor, full curve, poor fit]"},
      {"smiles": "CC(=O)Nc1cc(-c2cccc(NS(C)(=O)=O)c2)cn2c(-c3ccccc3)cnc12", "Potency": "inconclusive: 126 µM [inhibitor, partial curve, poor fit]"},
      {"smiles": "O=c1[nH]c(Nc2ccccc2)cc2ccccc12", "Potency": "inconclusive: 7.08 µM [inhibitor, partial curve, poor fit]"},
      {"smiles": "COC(=O)C1=C(C)N(Cc2ccccc2C(F)(F)F)C(=NCc2ccc3c(c2)OCO3)NC1c1cccc(Cl)c1", "note": "(centres undefined)", "Potency": "inconclusive: 50.1 µM [inhibitor, single point]"},
      {"smiles": "O=C(COc1ccc(F)cc1)N1CCC(n2cc(-c3nc(-c4ccccc4)no3)nn2)C1", "note": "(centres undefined)", "activity change, negative = inhibition": "inactive: 7.54%"},
      {"smiles": "Cc1ccc([S+](=O)([O-])N2CCn3c(nn(-c4ccc([N+](=O)[O-])cc4)c3=O)C2)cc1", "Potency": "inconclusive: 79.4 µM [inhibitor, partial curve]"},
      {"smiles": "COc1ccc(CNC(=O)CC2N=C3c4ccccc4N=C(SCC(=O)Nc4ccc(N(C)C)cc4)N3C2=O)cc1", "note": "(centres undefined)", "Potency": "inconclusive: 100 µM [inhibitor, partial curve, poor fit]"},
      {"smiles": "Cc1cccc(N2C(S)=C(C#N)C(=O)NC2c2cccs2)c1", "note": "(centres undefined)", "Potency": "inconclusive: 63.1 µM [inhibitor, partial curve, poor fit]"},
      {"smiles": "Cc1ccc(CN2c3ccccc3S(=O)(=O)c3ccccc32)cc1", "activity change, negative = inhibition": "inactive: -19.3%"},
      {"smiles": "C=C(C)CN(CC)c1nc(N)c2c(N)nc3c(c2c1C#N)CC(=O)N3C12CC3CC(CC(C3)C1)C2", "Potency": "inconclusive: 35.5 µM [inhibitor, partial curve, poor fit]"},
      {"smiles": "COc1ccc(/C=C2\\SC(=S)N(CCCC(=O)N3CCN(C)CC3)C2=O)cc1", "Potency": "inconclusive: 44.7 µM [inhibitor, partial curve, poor fit]"},
      {"smiles": "CCCc1cc(=O)[nH]c(SCC(=O)CSc2nc(CCC)cc(=O)[nH]2)n1", "Potency": "inconclusive: 12.6 µM [inhibitor, partial curve, poor fit]"},
      {"smiles": "O=C(NC1CCCC1)c1ccc(Cl)cc1-n1cnnn1", "Potency": "inconclusive: 44.7 µM [inhibitor, partial curve, poor fit]"},
      {"smiles": "COc1ccccc1-c1cc(C(=O)NCc2ccnc(N)c2)c2c(c1)ncn2C", "Potency": "inconclusive: 22.4 µM [inhibitor, full curve]"},
      {"smiles": "Cc1ccc(NC(=O)Cn2c(-c3ccc4c(c3)OCO4)cn(-c3ccccc3)c2=O)cc1", "Potency": "inconclusive: 141 µM [inhibitor, single point]"},
      {"smiles": "COc1cccc(N2CCN(c3ccc(NC(=O)c4ccc(C)cc4)cc3C(=O)O)CC2)c1", "Potency": "inconclusive: 11.2 µM [inhibitor, partial curve, poor fit]"},
      {"smiles": "CCOC(=O)C1=C(C)NC(=S)NC1c1ccc(-c2ccc(Cl)cc2)o1", "note": "(centres undefined)", "Potency": "active: 31.6 µM"},
      {"smiles": "C/C(=N\\O)c1oc2ccc3c(C)cc(=O)oc3c2c1-c1ccccc1", "Potency": "inconclusive: 141 µM [inhibitor, single point]"},
      {"smiles": "COc1ccccc1N1CCN(C(=O)CCc2ccccc2C)CC1=O", "activity change, negative = inhibition": "inactive: -0.245%"},
      {"smiles": "COC1=C2C[C@@H](C)C[C@H](OC)[C@@H](O)[C@@H](C)C=C(C)[C@H](OC(N)=O)[C@@H](OC)C=CC=C(C)C(=O)NC(=CC1=O)C2=O", "Potency": "inconclusive: 35.5 µM [inhibitor, partial curve, poor fit]"},
      {"smiles": "CCc1ccc(NC(=O)CSc2nc3ncc(Br)cc3[nH]2)cc1", "activity change, negative = inhibition": "inactive: 0.406%"},
      {"smiles": "CCC(Sc1nnc(C)n1-c1ccc(C)cc1)C(=O)Nc1cc(C)on1", "note": "(centres undefined)", "Potency": "inconclusive: 56.2 µM [inhibitor, partial curve, poor fit]"},
      {"smiles": "CCN1CCC(N(Cc2cccc(OC)c2)C(=O)Nc2ccc(C)cc2Cl)CC1", "Potency": "inconclusive: 100 µM [inhibitor, single point]"},
      {"smiles": "Nn1c(SCc2ccccc2)nnc1C1CCCCC1", "Potency": "inconclusive: 100 µM [inhibitor, partial curve, poor fit]"}
    ]}
  ]
}
